For some assays here: At least one peptide structure holds a part that was inferred or is arguable (an end, a ring closure or a residue). For some assays here: At least one compound was matched to its structure with a doubt left. Square brackets hold non-standard residues; d marks the D form. Peptide text beside a SMILES is read from it.
What was measured:
SRIF receptors = target: T1, SRIF receptors (Rattus norvegicus, UniProt P30680); test: Yeast bioassay for SRIF antagonist activity (zone of growth inhibition of LY364 cells growing in response to SRIF); type: cell-based; conditions: Table III; diameter of zone of growth inhibition; 10 µL of 5 mg/mL on filter disk; S-14 10 nM
T1 construct: expressed in transfected cells; host or cells: Saccharomyces cerevisiae strain LY364
Experimental: Agar plates containing LY364 cells that are growing in the presence of added SRIF are the basis for a sensitive SRIF antagonist assay, whereby zones of growth inhibition result from the addition of SRIF antagonists to the surface of the agar plate (see L.A. Price, et al., Molecular and Cellular Biology, 15, 6188-6195, 1995, incorporated herein by reference).
In this assay, LY364 cells are grown overnight in 2 mL of synthetic complete(SC) medium (3.4 g/L YNB without amino acids and ammonium sulfate, 10 g/L ammonium sulfate and 1.4 g/L CSM-ura-trp) with glucose (2%) and without uracil and tryptophan. These cells are washed and cultured for 4 to 8 hours in 5 mL of SC medium with lactate (3%) and without uracil and tryptophan, and finally grown overnight in 5 mL of SC medium with galactose (2%) and without uracil and tryptophan. Molten (50° C) SC agar medium with galactose (2%) and without uracil, tryptophan and histidine is adjusted to pH 6.8 with KOH, mixed with 2 x 10^4 cells/mL and SRIF (S-14, 10 nM) and poured into square (20 x 20 cm) petri dishes. Sterile filter disks are placed on the surface of the agar, and saturated with 10 µL of water or DMSO containing 5 mg/mL test peptides. […] This zone is quantified by measuring its diameter (mm), which varies according to the potency of the SRIF antagonist. […]
Plates are read after 3 days. […]

Amino acid sequences for entries named in this document (tags omitted). A change or cut given only in a name is not applied to a line headed by its entry.
UniProt P30680: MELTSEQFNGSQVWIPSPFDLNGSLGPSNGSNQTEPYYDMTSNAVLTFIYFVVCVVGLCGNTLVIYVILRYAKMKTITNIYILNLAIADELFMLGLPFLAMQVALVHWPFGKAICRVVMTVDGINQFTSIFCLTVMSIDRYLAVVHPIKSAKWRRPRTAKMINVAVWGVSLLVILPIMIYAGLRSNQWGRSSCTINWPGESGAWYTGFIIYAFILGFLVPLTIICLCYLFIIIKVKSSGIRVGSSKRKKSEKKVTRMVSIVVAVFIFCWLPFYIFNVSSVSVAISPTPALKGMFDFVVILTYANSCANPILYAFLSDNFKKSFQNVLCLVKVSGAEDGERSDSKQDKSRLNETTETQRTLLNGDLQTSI

SSTR2 = SSTR2 (Rattus norvegicus, UniProt P30680); test: cAMP accumulation in forskolin-stimulated GH4C1/SSTR2 cells (SPA radioimmunoassay); type: cell-based; parameters: expressed in transfected cells; host or cells: GH4C1 rat pituitary tumor cells (GH4C1/SSTR2); conditions: Forskolin 1.25 µM alone
Text: A primary effect of SRIF upon mammalian cells is the reduction of cyclic adenosine 3',5'-monophosphate(cAMP) levels, via inhibition of adenylyl cyclase. This is the basis of a common assay for SRIF agonists and antagonists, whereby SRIF agonists reduce artificially stimulated cAMP levels, and SRIF antagonists reverse the effect of SRIF. The rat pituitary tumor cell line GH4C1 predominantly expresses SSTR2, and responds to SRIF and to forskolin, a stimulator of adenylate cyclase (see C.M. Eppler, et al., J. Biol. Chem., 267, 15603-15612, 1992, incorporated herein by reference). […] This increases the response to SRIF and provides a greater dynamic range for the measurement of SRIF antagonist activity.
Stimulation of cells. […] Baseline cAMP levels are determined in samples with no added forskolin or SRIF, and each treatment is performed in triplicate.
cAMP assay. […] The 96-well tray is sealed, shaken at room temperature overnight and measured for bound radioligand in a MicroBeta liquid scintillation counter (Wallac, Gaithersburg. MD). The standard curve is determined for each experiment by performing a nonlinear regression (exponential decay) analysis of cpm measured for the cAMP standards vs. their log concentrations, and test sample values are determined by using Prism software (Graphpad Software Inc., San Diego, CA) and are shown in Table II and Figure 1. […]

Compound | Yeast Assay (mm) (SRIF receptors) | cAMP (SSTR2) [pM per 4 x 10^4 cells]
CC[C@@H](C)[C@@H](NC(=O)[C@@H](Cc1ccccc1)NC(=O)[C@@H](Cc1c[nH]cn1)NC(C)=O)C(=O)N[C@H](CCCNC(=N)N)C(=O)NCC(=O)N[C@H](Cc1ccccc1)C(N)=O [Peptide 26, h-f-i-r-g-f] (Ac-[dH][dF][dI][dR]G[dF]-NH2) | 9 | –
C=C[C@@]1(C)CC(=O)[C@]2(O)[C@@]3(C)[C@@H](O)CCC(C)(C)[C@@H]3[C@H](O)[C@H](OC(C)=O)[C@@]2(C)O1 [Forskolin, forskolin] | – | 3.04

Reference: patent EP0863156A1, “Peptides useful as somatostatin antagonists” (American Cyanamid Company, priority 1997, dated 1998)
